Data taken from article doi:10.1101/2023.03.17.533231.
These are yes or no findings as the source states them, for the method shown. Some binding calls cover weakened binding; strength is not graded here.

Protein sequences, listed by entry. Tags and fused reporters are not part of them.
UniProt Q8TEK3, whole entry: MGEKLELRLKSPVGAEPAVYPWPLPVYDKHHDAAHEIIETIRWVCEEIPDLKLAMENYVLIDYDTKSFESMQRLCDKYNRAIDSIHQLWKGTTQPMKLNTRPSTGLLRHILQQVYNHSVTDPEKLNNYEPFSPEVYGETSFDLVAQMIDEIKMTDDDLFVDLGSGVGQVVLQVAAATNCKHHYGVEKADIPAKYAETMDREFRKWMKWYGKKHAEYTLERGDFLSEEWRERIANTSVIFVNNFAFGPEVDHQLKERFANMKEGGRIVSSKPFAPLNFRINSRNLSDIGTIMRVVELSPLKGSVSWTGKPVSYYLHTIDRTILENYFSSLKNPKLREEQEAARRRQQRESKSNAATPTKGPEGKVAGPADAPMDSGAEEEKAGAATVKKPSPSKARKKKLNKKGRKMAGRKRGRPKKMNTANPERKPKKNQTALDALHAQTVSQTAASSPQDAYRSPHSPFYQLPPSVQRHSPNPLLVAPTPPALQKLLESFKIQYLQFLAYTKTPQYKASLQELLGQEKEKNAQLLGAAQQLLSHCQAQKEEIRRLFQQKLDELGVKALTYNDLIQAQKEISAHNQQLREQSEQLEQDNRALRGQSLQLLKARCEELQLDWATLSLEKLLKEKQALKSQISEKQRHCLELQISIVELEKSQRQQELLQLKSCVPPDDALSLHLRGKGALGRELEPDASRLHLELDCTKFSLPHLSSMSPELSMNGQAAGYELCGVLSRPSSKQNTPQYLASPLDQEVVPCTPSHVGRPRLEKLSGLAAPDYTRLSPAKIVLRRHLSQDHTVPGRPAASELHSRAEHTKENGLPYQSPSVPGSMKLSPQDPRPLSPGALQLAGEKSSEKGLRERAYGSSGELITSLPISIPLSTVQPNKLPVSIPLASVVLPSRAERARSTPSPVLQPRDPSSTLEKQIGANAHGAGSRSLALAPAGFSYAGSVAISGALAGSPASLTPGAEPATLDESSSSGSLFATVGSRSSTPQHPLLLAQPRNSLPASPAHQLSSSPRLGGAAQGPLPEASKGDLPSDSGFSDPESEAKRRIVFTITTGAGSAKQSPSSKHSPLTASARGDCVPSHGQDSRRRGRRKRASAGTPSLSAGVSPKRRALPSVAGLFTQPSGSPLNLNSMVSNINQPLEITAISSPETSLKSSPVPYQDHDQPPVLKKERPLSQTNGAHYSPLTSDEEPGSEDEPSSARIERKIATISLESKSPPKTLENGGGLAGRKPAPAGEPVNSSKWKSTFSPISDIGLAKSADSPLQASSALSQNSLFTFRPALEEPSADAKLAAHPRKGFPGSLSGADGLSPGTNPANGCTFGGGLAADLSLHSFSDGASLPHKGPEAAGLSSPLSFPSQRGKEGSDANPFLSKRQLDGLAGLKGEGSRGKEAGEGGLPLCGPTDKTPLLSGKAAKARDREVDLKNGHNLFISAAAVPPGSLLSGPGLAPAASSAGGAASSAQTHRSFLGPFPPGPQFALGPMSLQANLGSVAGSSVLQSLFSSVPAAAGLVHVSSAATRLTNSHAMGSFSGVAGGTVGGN

Biological target: T1, MLLT10 (human (endogenous in MV4;11)) (UniProt P55197)
T1 sequence: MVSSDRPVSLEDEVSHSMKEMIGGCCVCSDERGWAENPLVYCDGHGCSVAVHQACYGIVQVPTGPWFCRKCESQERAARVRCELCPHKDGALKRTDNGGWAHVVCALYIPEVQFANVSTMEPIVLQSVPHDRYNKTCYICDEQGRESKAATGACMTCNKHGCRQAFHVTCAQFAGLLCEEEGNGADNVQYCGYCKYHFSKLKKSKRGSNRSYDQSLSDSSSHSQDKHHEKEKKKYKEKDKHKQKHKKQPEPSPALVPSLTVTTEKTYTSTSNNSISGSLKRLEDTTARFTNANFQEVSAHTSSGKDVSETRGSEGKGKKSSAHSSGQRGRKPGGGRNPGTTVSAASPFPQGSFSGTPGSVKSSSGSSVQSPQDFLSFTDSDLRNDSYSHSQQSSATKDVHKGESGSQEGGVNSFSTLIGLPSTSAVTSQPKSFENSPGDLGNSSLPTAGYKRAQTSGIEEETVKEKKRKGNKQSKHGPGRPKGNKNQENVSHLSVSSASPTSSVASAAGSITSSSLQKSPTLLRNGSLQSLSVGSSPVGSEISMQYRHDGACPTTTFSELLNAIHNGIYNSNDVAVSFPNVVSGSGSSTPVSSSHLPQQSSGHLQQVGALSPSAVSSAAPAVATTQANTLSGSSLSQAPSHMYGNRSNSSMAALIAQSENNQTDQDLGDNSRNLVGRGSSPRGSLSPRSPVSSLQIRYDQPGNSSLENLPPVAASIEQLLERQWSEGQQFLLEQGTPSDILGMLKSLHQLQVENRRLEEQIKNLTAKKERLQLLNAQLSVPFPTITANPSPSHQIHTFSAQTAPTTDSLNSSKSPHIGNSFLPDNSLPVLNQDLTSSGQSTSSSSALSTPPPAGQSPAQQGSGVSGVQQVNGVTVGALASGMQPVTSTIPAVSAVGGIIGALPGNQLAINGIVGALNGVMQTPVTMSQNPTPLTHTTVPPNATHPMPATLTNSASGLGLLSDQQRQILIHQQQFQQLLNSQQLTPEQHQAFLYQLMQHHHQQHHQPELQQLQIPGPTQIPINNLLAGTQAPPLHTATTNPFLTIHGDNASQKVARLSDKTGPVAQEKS
Test: SEC

Q: For DOT1L (from UniProt Q8TEK3 1-1537), which binding is on record?
A: binds
